The target of this assay is ovine βB2 crystallin (ovine). Briefly: SDS PAGE under non-reducing conditions (homodimer).

In patent US8404644 one finds binding data, which are given here for one substance.

These are yes or no findings as the source states them, for the method shown. A result given as binding can be weak or reduced; the word gives no strength.

As for “ovine βB2 crystallin (from UniProt A0ACI6QA35 2-204)”, the binding result was “binds”.
